Assay results reported in PubChem BioAssay AID2662 (National Center for Advancing Translational Sciences (NCATS), 2010).
The whole screen tested about 290,000 compounds, of which about 110 (0.038%) were called active. The inconclusive results got no clear call from the source; some entries with a clear call stand among them for comparison. Calls come from the whole dose curve; as a rule, active = well fitted inhibition curve with a large enough effect in the polarisation, with a control signal flat (not every such curve was filed as active); inconclusive = small, poorly fitted or top-dose-only effect, or effect the other way, or a change in a side signal; inactive = no such curve, though single readings can be large or run the other way; the % refers to the polarisation. Potencies of inconclusive entries are doubtful fits and often do not repeat. A note “side channel” means that the fit belongs to a control or component signal, not to the main read-out.

Protein sequences, listed by entry. Tags and fused reporters are not part of them.
UniProt Q03164, whole entry, looked up: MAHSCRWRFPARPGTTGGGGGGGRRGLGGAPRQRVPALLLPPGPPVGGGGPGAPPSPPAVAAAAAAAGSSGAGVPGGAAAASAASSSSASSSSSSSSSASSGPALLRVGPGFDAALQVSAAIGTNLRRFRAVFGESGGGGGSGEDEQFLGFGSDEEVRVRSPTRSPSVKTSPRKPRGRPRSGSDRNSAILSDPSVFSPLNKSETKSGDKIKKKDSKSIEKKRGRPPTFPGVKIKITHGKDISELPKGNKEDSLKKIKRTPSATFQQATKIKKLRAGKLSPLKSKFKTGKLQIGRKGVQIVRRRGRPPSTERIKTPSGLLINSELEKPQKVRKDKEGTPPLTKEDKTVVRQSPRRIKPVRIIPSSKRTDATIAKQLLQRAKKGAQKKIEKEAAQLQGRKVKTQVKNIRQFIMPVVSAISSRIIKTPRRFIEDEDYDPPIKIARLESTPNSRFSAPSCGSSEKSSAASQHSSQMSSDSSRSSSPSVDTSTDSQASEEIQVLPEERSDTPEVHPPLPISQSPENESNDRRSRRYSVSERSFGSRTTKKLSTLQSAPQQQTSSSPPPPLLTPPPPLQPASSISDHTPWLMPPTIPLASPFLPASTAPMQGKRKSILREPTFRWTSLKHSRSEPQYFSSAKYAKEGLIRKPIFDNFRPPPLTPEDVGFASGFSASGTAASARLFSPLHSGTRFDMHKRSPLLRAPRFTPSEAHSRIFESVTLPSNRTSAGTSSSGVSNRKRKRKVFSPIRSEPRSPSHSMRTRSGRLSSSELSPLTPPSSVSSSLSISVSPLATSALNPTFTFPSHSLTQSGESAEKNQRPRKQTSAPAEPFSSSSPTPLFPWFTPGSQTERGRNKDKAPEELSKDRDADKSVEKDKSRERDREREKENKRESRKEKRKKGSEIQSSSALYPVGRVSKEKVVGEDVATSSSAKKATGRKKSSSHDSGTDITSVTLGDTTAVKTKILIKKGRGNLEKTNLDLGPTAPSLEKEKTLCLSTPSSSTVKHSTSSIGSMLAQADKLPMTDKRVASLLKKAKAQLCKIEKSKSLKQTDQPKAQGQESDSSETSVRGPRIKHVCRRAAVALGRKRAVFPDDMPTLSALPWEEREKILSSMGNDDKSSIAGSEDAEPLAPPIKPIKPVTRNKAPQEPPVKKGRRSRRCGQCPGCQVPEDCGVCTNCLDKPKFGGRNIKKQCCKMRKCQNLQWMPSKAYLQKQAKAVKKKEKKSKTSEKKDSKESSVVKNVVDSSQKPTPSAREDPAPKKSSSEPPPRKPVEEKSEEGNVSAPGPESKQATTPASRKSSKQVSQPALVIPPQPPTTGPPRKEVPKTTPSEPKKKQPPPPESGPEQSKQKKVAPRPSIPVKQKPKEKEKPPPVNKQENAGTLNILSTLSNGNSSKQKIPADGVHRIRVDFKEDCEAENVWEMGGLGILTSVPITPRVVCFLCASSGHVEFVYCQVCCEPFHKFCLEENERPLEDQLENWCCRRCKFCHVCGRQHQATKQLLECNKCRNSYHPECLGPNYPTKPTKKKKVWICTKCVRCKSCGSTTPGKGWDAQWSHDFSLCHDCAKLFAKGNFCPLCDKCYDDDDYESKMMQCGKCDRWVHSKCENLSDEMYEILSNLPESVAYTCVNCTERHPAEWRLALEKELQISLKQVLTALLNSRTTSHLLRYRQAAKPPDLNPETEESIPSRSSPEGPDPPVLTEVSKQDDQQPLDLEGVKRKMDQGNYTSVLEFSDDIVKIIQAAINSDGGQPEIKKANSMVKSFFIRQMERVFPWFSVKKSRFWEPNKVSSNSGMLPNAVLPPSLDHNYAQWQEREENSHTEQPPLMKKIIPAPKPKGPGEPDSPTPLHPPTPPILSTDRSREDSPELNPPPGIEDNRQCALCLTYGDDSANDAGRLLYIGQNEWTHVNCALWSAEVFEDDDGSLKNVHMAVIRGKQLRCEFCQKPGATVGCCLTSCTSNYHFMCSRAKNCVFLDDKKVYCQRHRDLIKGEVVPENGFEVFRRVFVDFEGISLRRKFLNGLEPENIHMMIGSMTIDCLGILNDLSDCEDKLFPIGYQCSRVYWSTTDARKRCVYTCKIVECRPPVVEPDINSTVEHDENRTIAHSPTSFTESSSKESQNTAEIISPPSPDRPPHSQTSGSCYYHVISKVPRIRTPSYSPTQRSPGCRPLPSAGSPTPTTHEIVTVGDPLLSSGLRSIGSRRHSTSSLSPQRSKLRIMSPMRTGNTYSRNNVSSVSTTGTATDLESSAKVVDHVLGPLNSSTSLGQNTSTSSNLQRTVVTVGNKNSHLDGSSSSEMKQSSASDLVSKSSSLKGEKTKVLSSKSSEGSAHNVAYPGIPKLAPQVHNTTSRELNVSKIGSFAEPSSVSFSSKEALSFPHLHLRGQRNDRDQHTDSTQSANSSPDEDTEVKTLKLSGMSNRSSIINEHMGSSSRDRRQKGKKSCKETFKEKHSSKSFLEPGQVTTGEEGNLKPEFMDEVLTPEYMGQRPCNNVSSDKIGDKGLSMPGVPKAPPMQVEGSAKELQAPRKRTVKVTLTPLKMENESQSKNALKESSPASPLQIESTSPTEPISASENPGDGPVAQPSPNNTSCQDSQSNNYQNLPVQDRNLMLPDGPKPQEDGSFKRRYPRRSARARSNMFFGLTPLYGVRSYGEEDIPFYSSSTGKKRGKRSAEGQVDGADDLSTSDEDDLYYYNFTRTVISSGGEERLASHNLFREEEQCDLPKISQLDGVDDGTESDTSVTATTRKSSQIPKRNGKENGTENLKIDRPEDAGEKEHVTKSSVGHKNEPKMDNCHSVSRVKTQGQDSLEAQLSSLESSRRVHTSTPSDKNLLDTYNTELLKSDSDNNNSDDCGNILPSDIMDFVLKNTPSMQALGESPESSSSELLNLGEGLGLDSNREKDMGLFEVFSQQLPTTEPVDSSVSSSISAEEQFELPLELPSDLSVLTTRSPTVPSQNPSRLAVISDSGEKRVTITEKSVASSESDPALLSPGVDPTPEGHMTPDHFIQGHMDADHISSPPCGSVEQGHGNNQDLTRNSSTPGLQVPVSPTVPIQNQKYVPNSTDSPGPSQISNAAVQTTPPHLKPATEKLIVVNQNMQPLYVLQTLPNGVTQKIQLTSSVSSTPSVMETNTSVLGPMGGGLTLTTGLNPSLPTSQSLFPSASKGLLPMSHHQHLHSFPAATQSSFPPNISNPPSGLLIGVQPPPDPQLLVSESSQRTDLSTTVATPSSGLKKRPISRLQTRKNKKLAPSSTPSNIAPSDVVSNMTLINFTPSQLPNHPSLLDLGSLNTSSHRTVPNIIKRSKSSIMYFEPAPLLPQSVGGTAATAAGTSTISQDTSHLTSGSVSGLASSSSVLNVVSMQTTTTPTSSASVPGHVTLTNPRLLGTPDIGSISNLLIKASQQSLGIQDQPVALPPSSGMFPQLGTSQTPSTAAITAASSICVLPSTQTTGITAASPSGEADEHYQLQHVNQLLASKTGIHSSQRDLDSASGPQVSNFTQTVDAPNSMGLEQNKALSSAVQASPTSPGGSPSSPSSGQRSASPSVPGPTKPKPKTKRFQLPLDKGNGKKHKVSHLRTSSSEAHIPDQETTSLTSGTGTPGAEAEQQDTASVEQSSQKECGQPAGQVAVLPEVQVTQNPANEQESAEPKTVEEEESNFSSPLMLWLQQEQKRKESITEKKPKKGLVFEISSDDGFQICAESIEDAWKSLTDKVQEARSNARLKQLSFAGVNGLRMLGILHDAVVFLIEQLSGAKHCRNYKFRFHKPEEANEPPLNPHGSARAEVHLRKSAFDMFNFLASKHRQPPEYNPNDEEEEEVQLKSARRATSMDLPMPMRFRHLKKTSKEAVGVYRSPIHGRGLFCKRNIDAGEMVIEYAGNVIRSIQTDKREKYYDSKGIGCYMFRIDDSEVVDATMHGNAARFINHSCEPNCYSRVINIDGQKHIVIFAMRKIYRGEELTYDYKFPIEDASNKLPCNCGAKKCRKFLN

What follows are molecules tested against Histone-lysine N-methyltransferase 2A (Homo sapiens) (UniProt Q03164) (assay: qHTS Fluorescence Polarization Assay for Inhibitors of MLL CXXC domain - DNA interaction). Conditions: MLL-CXXC / FITC-HOXA9 DNA fluorescence polarization; series mostly up to 115 µM.
Summary of the method: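 Steps: dispense CXXC domain solution (7 uM) → pin compounds or unlabeled HOX-A9 DNA control → 5 min ambient → add FLSN-HOX-A9 solution (50 nM) → spin → 30 min ambient → fluorescence polarization. Tris pH 7.5/NaCl/DTT/BSA buffer.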
Potency is the fitted concentration of half-maximal effect.

Row | SMILES | Potency
1 | O=C(Nc1nnc(-c2ccc3c(c2)CCCC3)o1)C1COc2ccccc2O1 (configuration not stated) | inconclusive: 39.8 µM [inhibitor, partial curve]
2 | CCOc1cccc(/C=C(/C#N)c2nc3ccccc3[nH]2)c1OCC(=O)O | inconclusive: 28.2 µM [inhibitor, partial curve]
3 | CCN1C(=O)/C(=C/c2ccc(N3CCCC3)cc2)NC1=S | inconclusive: 10 µM [fluorescent, side channel, full curve]
4 | COc1ccc(C(NC(C)=O)c2cc(Cl)c3cccnc3c2O)cc1 (configuration not stated) | inconclusive: 35.5 µM [inhibitor, partial curve]
5 | CC1CC[C@@]2(OC1)O[C@H]1CC3[C@@H]4C[C@@H](O)[C@@]5(O)C[C@@H](O)[C@H](O)C[C@]5(C)[C@H]4CC[C@]3(C)[C@H]1[C@@H]2C (some centres not stated) | inactive
6 | CC1=NN(C(N)=S)C(=O)C1N=Nc1ccc(C)cc1C (configuration not stated) | inconclusive: 39.8 µM [inhibitor, single point]
7 | CCC(C)c1ccc(NC(=O)Nc2cnccn2)cc1 (configuration not stated) | inconclusive: 14.1 µM [quencher, side channel, single point]
8 | COC(=O)C1=C(C)N=C2SC(C#N)=C(N)N2C1c1cc(OC)c(OC)c(OC)c1 (configuration not stated) | inconclusive: 70.8 µM [inhibitor, single point]
9 | Cc1cccc(Nc2n[nH]c(=S)s2)c1C | inconclusive: 44.7 µM [fluorescent, side channel, partial curve]
10 | C/C=C/C=C/C(=O)N1CC2(CC(c3cccc(NC(=O)/C=C/C)c3)=NO2)C[C@@H]1C(N)=O (some centres not stated) | inactive
11 | Cc1ccc(/C(N)=N/OC(=O)C(C)c2ccc([N+](=O)[O-])cc2)cc1 (configuration not stated) | inconclusive: 89.1 µM [inhibitor, single point]
12 | N#C/C(=C\C=C\c1ccccc1)c1nc(-c2ccc3c(c2)OCO3)cs1 | inconclusive: 31.6 µM [fluorescent, side channel, partial curve]
13 | COc1ccc(-c2nc3n(c2C)CCC3)cc1 | inactive
14 | Cc1cc2nc3c(=O)n(Cc4ccccc4)c(=O)[nH]c3nc2cc1N | inconclusive: 6.31 µM [fluorescent, side channel, full curve]
15 | FC(F)(F)c1ccccc1NC(=S)Nn1cnnc1 | inconclusive: 50.1 µM [inhibitor, single point]
16 | O=C(O)c1cc(Cl)ccc1-c1ccc(/C=C/c2cc(C(F)(F)F)[nH]c(=O)n2)o1 | inconclusive: 15.8 µM [fluorescent, side channel, partial curve]
17 | C=CCn1c(C(CC(C)C)CC(C)O)n[nH]c1=S (configuration not stated) | inactive

Laid out differently: 2 of the compounds above.
Row	SMILES	Potency
1	O=C(Nc1nnc(-c2ccc3c(c2)CCCC3)o1)C1COc2ccccc2O1 (configuration not stated)	inconclusive: 39.8 µM [inhibitor, partial curve]
7	CCC(C)c1ccc(NC(=O)Nc2cnccn2)cc1 (configuration not stated)	inconclusive: 14.1 µM [quencher, side channel, single point]
